According to paper PMC9769108, “Tuning dynamic DNA- and peptide-driven self-assembly in DNA–peptide conjugates†” (Chemical Science, 2022):
These are yes or no findings as the source states them, for the method shown. Some entries that bind do so weakly or less than the wild type.

Biological target: ILVAGK, β-turn-forming hexapeptide (parent peptide)
Test: dynamic light scattering + atomic force microscopy; 1% SDS aqueous solution, chosen to arrest peptide self-assembly; aged 0 to 28 days; 10 μM; both purified

Q: With ILVAGK [ILVAGK, β-turn-forming hexapeptide (parent peptide)] as the binder, how does the binding read?
A: binds weakly
